Measured values taken from PMC9289542.
These are yes or no findings as the source states them, for the method shown. In cells and extracts the contact can be indirect. Some entries that bind do so weakly or less than the wild type.

By UniProt entry, the sequences of proteins in these tests, tags left out. Residues count along the entry.
UniProt O95169, residues 29-186: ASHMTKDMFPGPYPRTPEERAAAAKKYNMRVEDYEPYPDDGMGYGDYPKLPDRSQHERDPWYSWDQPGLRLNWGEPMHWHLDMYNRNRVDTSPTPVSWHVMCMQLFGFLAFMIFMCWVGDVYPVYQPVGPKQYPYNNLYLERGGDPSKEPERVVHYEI

T1: protein disulfide isomerase-associated 2 (human (endogenous in HT-29)) (UniProt Q13087)
T1 sequence: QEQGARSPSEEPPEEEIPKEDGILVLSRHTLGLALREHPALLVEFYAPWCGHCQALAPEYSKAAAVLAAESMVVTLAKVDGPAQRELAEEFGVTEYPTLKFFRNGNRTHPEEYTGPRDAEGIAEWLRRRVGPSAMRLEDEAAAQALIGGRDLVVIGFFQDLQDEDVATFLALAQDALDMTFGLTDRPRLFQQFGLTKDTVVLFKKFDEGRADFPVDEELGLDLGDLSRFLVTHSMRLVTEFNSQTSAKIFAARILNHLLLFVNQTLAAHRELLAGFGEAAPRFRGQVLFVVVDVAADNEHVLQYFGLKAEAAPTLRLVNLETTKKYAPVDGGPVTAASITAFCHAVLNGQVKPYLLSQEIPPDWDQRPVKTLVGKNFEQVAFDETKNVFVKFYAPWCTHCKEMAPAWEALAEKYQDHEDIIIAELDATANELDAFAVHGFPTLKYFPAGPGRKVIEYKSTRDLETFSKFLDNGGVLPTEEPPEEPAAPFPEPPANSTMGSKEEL


Target: T1, protein disulfide isomerase-associated 2 (human (endogenous in HT-29))
Test: co-IP; HT-29 total cell lysate (600 ug protein) immunoprecipitated with anti-PDIA2 antibody or control rabbit IgG at 4 C overnight, protein A/G PLUS-agarose; blotted with the total OXPHOS rodent WB antibody cocktail

| Molecule | binding |
| --- | --- |
| CI-20kDa subunit NDUFB8 (from UniProt O95169 29-186) | binds |
| CII-30kDa SDHB (protein, UniProt P21912 29-280) AQTAAATAPRIKKFAIYRWDPDKAGDKPHMQTYEVDLNKCGPMVLDALIKIKNEVDSTLTFRRSCREGICGSCAMNINGGNTLACTRRIDTNLNKVSKIYPLPHMYVIKDLVPDLSNFYAQYKSIEPYLKKKDESQEGKQQYLQSIEEREKLDGLYECILCACCSTSCPSYWWNGDKYLGPAVLMQAYRWMIDSRDDFTEERLAKLQDPFSLYRCHTIMNCTRTCPKGLNPGKAIAEIKKMMATYKEKKASV | binds |
